Assay results reported in patent US20060106037A1, “Purin-6-one-derivatives” (priority 2003, published 2006).
Some results were stated once for a whole list of compounds, not compound by compound.

Sequences of proteins named here, by UniProt entry; tags and fusion partners are left off.
UniProt O00408, whole entry: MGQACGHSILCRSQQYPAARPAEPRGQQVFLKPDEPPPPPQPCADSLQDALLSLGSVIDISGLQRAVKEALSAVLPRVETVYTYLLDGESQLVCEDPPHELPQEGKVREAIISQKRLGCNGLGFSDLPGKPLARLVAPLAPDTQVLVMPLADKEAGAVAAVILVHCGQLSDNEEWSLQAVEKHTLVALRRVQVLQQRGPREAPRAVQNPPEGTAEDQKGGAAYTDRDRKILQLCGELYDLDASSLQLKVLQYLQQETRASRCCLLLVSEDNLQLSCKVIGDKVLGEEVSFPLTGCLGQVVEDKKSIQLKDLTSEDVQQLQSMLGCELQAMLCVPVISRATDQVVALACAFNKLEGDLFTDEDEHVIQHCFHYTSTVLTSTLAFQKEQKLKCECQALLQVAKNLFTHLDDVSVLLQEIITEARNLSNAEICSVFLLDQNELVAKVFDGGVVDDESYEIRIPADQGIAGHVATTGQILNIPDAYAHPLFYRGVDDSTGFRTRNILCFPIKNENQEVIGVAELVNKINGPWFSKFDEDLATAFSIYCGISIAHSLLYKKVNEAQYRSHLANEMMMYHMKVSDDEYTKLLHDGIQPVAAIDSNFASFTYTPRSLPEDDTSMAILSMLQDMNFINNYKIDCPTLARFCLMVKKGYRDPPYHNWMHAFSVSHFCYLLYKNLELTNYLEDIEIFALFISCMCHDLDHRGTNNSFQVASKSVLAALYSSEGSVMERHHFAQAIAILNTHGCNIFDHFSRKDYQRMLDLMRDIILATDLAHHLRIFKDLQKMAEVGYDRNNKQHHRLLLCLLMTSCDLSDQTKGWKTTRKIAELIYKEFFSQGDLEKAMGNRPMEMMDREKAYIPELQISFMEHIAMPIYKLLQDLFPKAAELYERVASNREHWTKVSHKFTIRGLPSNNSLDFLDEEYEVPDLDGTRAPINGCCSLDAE

Target: T1, recombinant human PDE2A3 (Homo sapiens, UniProt O00408)
T1 construct: exchanged with the corresponding restriction fragment from the C-terminal clone, to obtain a complete ORF; made in house; host or cells: Sf21 insect cells (recombinant baculovirus prepared in Sf9)
Test: Measurement of recombinant human PDE2A3 inhibition by SPA technology
Format: biochemical
Settings: 0.5 μM cAMP, 5 μM cGMP to activate PDE2A3

SMILES | inhibitory values, -log IC50 (mol/l), recombinant human PDE2A3 activity
COc1cc(Cc2nc3c(ncn3C(CCCc3ccccc3)C(C)O)c(=O)[nH]2)ccc1OC(F)F (stereo not drawn) [Example 1, 2-(4-Difluoromethoxy-3-methoxybenzyl)-9-[1-(1-hydroxyethyl)-4-phenylbutyl]-1,9-dihydropurin-6-one] | higher than 7.5 mol/l
COc1cc(Cc2nc3c(ncn3C(CCCc3ccccc3)C(C)=O)c(=O)[nH]2)ccc1OC(F)F (stereo not drawn) [Example 2, 9-(1-Acetyl-4-phenylbutyl)-2-(4-difluoromethoxy-3-methoxybenzyl)-1,9-dihydropurin-6-one] | higher than 7.5 mol/l
COc1ccc(Cc2nc3c(ncn3C(CCCc3ccccc3)C(C)O)c(=O)[nH]2)cc1OC(F)F (stereo not drawn) [Example 3, 2-(3-Difluoromethoxy-4-methoxybenzyl)-9-[1-(1-hydroxyethyl)-4-phenylbutyl]-1,9-dihydropurin-6-one] | higher than 7.5 mol/l
COc1ccc(Cc2nc3c(ncn3C(CCCc3ccccc3)C(C)=O)c(=O)[nH]2)cc1OC(F)F (stereo not drawn) [Example 4, 9-(1-Acetyl-4-phenylbutyl)-2-(3-difluoromethoxy-4-methoxybenzyl)-1,9-dihydropurin-6-one] | higher than 7.5 mol/l
COc1cc(Cc2nc3c(ncn3C(CCCc3ccccc3)C(C)OC(C)=O)c(=O)[nH]2)ccc1OC(F)F (stereo not drawn) [Example 5, 2-[2-(4-Difluoromethoxy-3-methoxybenzyl)-6-oxo-1,6-dihydropurin-9-yl]-1-methyl-5-phenylphentyl acetate] | higher than 7.5 mol/l
COc1cc(Cc2nc3c(nc(C)n3C(CCCc3ccccc3)C(C)=O)c(=O)[nH]2)ccc1OC(F)F (stereo not drawn) [Example 7, 9-(1-Acetyl-4-phenylbutyl)-2-(4-difluoromethoxy-3-methoxybenzyl)-8-methyl-1,9-dihydropurin-6-one] | higher than 7.5 mol/l
COc1ccc(Cc2nc3c(nc(C)n3C(CCCc3ccccc3)C(C)O)c(=O)[nH]2)cc1OC(F)F (stereo not drawn) [Example 8, 2-(3-Difluoromethoxy-4-methoxybenzyl)-9-[1-(1-hydroxyethyl)-4-phenylbutyl]-8-methyl-1,9-dihydropurin-6-one] | higher than 7.5 mol/l
COc1ccc(Cc2nc3c(nc(C)n3C(CCCc3ccccc3)C(C)=O)c(=O)[nH]2)cc1OC(F)F (stereo not drawn) [Example 9, 9-(1-Acetyl-4-phenylbutyl)-2-(3-difluoromethoxy-4-methoxybenzyl)-8-methyl-1,9-dihydropurin-6-one] | higher than 7.5 mol/l
COc1ccc(CC(=O)Nc2cc(Cc3nc4c(ncn4C(CCCc4ccccc4)C(C)=O)c(=O)[nH]3)ccc2OC(F)F)cc1 (stereo not drawn) [Example 23, N-[5-[9-(1-Acetyl-4-phenylbutyl)-6-oxo-6,9-dihydro-1H-purin-2-ylmethyl]-2-difluoromethoxybenzyl]-2-(4-methoxyphenyl)acetamide] | higher than 7.5 mol/l
COC(=O)c1ccc(C(=O)Nc2cc(Cc3nc4c(ncn4C(CCCc4ccccc4)C(C)=O)c(=O)[nH]3)ccc2OC(F)F)cc1 (stereo not drawn) [Example 24, N-[5-[9-(1-Acetyl-4-phenylbutyl)-6-oxo-6,9-dihydro-1H-purin-2-ylmethyl]-2-difluoromethoxybenzyl]-(4-methoxycarbonyl)benzamide] | higher than 7.5 mol/l
CCCN(CCC)S(=O)(=O)c1ccc(C(=O)Nc2cc(Cc3nc4c(ncn4C(CCCc4ccccc4)C(C)=O)c(=O)[nH]3)ccc2OC(F)F)cc1 (stereo not drawn) [Example 25, N-[5-[9-(1-Acetyl-4-phenylbutyl)-6-oxo-6,9-dihydro-1H-purin-2-ylmethyl]-2-difluoromethoxybenzyl]-(4-dipropylsulphamoyl)benzamide] | higher than 7.5 mol/l
CC(=O)C(CCCc1ccccc1)n1cnc2c(=O)[nH]c(Cc3ccc(OC(F)F)c(NC(=O)c4ccc(F)c(Cl)c4)c3)nc21 (stereo not drawn) [Example 26, N-[5-[9-(1-Acetyl-4-phenylbutyl)-6-oxo-6,9-dihydro-1H-purin-2-ylmethyl]-2-difluoromethyoxyphenyl]-3-chloro-4-fluorobenzamide] | higher than 7.5 mol/l
CC(=O)C(CCCc1ccccc1)n1cnc2c(=O)[nH]c(Cc3ccc(OC(F)F)c(NC(=O)c4ccc(C)c(F)c4)c3)nc21 (stereo not drawn) [Example 27, N-[5-[9-(1-Acetyl-4-phenylbutyl)-6-oxo-6,9-dihydro-1H-purin-2-ylmethyl]-2-difluoromethyoxyphenyl]-3-fluoro-4-methylbenzamide] | higher than 7.5 mol/l
CC(O)C(CCCc1ccccc1)n1cnc2c(=O)[nH]c(Cc3ccc(Cl)c(OC(F)F)c3)nc21 (stereo not drawn) [Example 28, 2-[4-Chloro-3-(difluoromethoxy)-benzyl]-9-[1-(1-hydroxy-ethyl)-4-phenyl-butyl]-1,9-dihydropurin-6-one] | higher than 7.5 mol/l
CC(=O)C(CCCc1ccccc1)n1cnc2c(=O)[nH]c(Cc3ccc(Cl)c(OC(F)F)c3)nc21 (stereo not drawn) [Example 29, 9-(1-Acetyl-4phenyl-butyl)-2-[4-chloro-3-(difluoromethoxy)-benzyl]-1,9-dihydro-purin-6-one] | higher than 7.5 mol/l
